The record followed here is paper PMC3866087.

Chains of the proteins cited; added tags and fusions are not shown.
UniProt P00579: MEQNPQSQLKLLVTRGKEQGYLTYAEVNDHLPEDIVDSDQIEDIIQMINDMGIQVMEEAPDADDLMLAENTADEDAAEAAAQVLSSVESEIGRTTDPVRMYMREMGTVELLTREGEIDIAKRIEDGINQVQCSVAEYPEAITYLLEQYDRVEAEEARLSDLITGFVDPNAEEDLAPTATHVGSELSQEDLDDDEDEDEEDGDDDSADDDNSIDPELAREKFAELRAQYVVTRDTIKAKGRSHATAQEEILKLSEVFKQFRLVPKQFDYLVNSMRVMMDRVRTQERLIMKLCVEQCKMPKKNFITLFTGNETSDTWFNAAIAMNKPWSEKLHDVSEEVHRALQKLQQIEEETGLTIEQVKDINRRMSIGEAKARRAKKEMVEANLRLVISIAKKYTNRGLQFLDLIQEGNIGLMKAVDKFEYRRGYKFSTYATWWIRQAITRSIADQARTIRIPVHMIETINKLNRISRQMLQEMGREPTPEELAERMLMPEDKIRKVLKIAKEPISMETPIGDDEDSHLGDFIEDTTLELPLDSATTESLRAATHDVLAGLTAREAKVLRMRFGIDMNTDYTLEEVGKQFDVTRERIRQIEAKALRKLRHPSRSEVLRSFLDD

No constants are given. Whether binding was seen depends on the method and setting. Binding seen in cells or lysates may run through a third protein.

The target of test [1] is T1, Ffh (protein component of the signal recognition particle, SRP), endogenous (E. coli (endogenous in E. coli K-12 MG1655 derivative)) (UniProt P0AGD7).
T1 sequence: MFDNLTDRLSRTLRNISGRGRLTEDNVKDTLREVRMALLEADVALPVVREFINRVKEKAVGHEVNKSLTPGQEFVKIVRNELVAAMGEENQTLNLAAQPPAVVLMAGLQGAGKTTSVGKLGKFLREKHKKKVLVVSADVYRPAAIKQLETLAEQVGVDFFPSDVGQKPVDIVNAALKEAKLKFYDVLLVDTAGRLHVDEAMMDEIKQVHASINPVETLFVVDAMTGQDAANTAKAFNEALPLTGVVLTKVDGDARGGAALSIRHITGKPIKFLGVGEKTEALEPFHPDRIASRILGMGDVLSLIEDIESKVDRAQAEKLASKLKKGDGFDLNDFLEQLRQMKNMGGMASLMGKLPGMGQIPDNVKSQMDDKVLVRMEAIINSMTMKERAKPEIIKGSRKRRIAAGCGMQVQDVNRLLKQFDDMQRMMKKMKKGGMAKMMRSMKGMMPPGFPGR
The test can be described thus: co-IP; anti-Ffh or anti-FtsY antibodies on lysates of ΔftsH (control: Δσ^32) cells in exponential phase, 4°C 14 h, 20 mM Hepes-KOH, 150 mM NaCl, 10 mM EDTA, 10% glycerol, pH 7.5; immunoblot with anti-σ^32 and anti-σ^70.

Test [2] has as its target T2, FtsY (SRP receptor, SR), endogenous (E. coli (endogenous in E. coli K-12 MG1655 derivative)) (UniProt P10121).
T2 sequence: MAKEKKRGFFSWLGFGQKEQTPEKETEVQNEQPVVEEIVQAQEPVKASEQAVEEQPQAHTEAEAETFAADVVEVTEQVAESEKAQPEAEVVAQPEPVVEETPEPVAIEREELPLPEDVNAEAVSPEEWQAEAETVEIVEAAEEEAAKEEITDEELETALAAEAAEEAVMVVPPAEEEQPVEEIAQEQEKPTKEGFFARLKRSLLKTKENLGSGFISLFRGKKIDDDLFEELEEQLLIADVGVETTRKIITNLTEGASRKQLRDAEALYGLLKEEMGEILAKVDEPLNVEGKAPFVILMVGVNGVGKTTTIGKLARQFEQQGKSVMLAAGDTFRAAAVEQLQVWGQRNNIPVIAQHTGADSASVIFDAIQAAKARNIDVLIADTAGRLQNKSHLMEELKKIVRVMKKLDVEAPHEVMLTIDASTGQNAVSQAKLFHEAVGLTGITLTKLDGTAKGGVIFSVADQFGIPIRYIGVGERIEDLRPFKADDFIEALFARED
The description is as above.

Regarding “σ^70, endogenous (from UniProt P00579 1-613)”, the binding entry in test [1] and in test [2] was “no binding” each time.
